# Source: the supplement of paper PMC6411743
# ± gives the standard deviation of the averaged measurements. This is one part of the list.
# Target: T1, UniProt Q5JRX3 and related entries
# T1 sequence (whole entry): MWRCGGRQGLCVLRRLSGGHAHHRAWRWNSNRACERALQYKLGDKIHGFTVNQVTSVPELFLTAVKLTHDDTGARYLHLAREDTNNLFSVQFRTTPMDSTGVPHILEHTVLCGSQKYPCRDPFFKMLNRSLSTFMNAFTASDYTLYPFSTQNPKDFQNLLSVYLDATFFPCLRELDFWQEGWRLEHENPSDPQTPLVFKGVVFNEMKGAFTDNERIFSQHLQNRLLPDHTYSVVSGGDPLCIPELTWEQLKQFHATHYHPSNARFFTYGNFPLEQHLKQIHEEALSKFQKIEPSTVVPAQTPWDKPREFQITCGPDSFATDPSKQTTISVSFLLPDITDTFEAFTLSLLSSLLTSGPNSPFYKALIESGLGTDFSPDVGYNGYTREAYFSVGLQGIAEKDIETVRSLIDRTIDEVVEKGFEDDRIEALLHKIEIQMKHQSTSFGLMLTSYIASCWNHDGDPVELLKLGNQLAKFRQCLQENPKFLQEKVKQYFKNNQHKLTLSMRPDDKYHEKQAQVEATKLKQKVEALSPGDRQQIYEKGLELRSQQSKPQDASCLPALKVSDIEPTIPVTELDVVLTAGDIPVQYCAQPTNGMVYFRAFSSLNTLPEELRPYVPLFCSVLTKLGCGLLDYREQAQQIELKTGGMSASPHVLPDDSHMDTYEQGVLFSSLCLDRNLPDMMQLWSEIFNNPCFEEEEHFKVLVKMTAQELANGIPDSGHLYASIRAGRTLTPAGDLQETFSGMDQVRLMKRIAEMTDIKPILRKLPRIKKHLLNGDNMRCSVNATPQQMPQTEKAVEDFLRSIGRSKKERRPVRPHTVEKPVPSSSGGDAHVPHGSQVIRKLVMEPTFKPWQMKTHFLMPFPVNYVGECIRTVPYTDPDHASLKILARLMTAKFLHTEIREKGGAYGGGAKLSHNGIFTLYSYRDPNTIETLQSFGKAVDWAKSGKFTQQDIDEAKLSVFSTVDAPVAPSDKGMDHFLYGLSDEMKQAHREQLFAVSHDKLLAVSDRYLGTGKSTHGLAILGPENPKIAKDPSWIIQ
# Assay: NP40-soluble protein abundance relative to vehicle (solubility fold change) (ratio); higher = more soluble protein in presence of GTP
# Description: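 Solubility proteome profiling in Jurkat crude lysate. Lysate was treated with Mg-GTP (0.1-10 mM) for 10 min at room temperature and 3 min at 37 °C, then solubilised with 0.8% NP40 and benzonase, followed by ultracentrifugation. Proteins were quantified by TMT10 LC-MS/MS; the value is the NP40-soluble abundance relative to the NP40-processed vehicle, from 3 independent experiments.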
compound,measurement,setting,value
Nc1nc2c(ncn2[C@@H]2O[C@H](COP(=O)(O)OP(=O)(O)OP(=O)(O)O)[C@@H](O)[C@H]2O)c(=O)[nH]1 [guanosine triphosphate],NP40-soluble protein abundance,concentration: 0.1mM,0.994 ± 0.019
same,NP40-soluble protein abundance,concentration: 0.5mM,1.02 ± 0.014
same,NP40-soluble protein abundance,concentration: 1mM,0.936 ± 0.027
same,NP40-soluble protein abundance,concentration: 2mM,0.951 ± 0.034
same,NP40-soluble protein abundance,concentration: 4mM,0.92 ± 0.046
same,NP40-soluble protein abundance,concentration: 6mM,0.932 ± 0.037
same,NP40-soluble protein abundance,concentration: 8mM,0.926 ± 0.019
same,NP40-soluble protein abundance,concentration: 10mM,0.894 ± 0.05
